This is one part of the list. The data scatter; read single values as rough.
Columns and labels:
[1] = compound: ClCC(=O)N[C@@H]1CCCc2ccccc12; test: log2 mean competition ratio of IA-DTB cysteine labelling (DMSO/compound) (log2 ratio); higher = stronger cysteine engagement by compound; conditions: treatment time: 4 h, cell line lysate: HEK293T
Procedure: (§1)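 IA-DTB competitive cysteine chemoproteomics in HEK293T RIPA lysate. Lysates were treated with compound 29 or 30 at 50 or 200 µM for 4 h, then IA-DTB (500 µM, 1 h), trypsin-digested, NeutrAvidin-enriched and analysed by diaPASEF. Competition ratio = intensity DMSO / intensity compound (n=4 treated, n=64 DMSO); binding: mean log2 CR ≥ 1 and p ≤ 0.05 plus QC filters. Target is the cysteine site.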

Chains of the proteins cited; added tags and fusions are not shown. Lines headed by an entry give the natural chain unless they say otherwise; changes in a name come on top.
UniProt Q96EK7: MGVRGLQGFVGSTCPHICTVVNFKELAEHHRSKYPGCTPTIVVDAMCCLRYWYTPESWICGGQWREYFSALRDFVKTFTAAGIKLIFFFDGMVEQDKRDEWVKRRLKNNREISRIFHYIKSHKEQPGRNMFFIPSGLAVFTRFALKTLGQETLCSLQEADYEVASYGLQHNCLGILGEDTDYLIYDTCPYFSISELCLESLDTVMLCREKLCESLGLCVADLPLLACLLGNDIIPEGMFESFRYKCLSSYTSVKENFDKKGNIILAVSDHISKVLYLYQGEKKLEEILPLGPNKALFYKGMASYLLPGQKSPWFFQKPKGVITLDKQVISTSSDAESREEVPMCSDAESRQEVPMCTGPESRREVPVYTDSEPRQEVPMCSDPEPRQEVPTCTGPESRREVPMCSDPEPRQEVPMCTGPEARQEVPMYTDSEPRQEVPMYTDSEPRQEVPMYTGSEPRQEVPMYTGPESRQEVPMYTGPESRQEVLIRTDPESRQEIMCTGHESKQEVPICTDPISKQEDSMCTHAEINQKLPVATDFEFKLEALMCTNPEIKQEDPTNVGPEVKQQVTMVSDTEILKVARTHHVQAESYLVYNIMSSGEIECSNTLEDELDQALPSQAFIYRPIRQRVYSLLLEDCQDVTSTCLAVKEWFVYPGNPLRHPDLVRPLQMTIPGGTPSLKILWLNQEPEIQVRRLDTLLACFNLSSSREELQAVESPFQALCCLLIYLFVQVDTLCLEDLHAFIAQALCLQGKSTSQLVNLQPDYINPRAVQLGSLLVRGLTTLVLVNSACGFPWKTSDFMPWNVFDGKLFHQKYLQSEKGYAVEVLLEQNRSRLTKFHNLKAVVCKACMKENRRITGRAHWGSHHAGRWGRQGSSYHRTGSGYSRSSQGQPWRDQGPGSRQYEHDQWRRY
UniProt Q9BYI3: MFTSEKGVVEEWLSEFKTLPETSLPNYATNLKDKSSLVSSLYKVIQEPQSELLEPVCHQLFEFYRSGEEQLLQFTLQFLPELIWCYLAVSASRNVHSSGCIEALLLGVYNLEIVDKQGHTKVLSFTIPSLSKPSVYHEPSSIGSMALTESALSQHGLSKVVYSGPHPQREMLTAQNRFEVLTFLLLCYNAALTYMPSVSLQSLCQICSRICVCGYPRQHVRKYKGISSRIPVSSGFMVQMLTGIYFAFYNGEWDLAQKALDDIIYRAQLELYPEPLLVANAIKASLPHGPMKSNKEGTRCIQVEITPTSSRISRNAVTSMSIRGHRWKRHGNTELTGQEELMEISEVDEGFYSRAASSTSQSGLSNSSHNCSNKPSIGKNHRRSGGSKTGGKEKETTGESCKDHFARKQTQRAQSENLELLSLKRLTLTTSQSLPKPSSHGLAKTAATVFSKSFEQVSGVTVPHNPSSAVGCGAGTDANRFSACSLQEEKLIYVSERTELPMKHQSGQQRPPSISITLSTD
UniProt Q2NKX8: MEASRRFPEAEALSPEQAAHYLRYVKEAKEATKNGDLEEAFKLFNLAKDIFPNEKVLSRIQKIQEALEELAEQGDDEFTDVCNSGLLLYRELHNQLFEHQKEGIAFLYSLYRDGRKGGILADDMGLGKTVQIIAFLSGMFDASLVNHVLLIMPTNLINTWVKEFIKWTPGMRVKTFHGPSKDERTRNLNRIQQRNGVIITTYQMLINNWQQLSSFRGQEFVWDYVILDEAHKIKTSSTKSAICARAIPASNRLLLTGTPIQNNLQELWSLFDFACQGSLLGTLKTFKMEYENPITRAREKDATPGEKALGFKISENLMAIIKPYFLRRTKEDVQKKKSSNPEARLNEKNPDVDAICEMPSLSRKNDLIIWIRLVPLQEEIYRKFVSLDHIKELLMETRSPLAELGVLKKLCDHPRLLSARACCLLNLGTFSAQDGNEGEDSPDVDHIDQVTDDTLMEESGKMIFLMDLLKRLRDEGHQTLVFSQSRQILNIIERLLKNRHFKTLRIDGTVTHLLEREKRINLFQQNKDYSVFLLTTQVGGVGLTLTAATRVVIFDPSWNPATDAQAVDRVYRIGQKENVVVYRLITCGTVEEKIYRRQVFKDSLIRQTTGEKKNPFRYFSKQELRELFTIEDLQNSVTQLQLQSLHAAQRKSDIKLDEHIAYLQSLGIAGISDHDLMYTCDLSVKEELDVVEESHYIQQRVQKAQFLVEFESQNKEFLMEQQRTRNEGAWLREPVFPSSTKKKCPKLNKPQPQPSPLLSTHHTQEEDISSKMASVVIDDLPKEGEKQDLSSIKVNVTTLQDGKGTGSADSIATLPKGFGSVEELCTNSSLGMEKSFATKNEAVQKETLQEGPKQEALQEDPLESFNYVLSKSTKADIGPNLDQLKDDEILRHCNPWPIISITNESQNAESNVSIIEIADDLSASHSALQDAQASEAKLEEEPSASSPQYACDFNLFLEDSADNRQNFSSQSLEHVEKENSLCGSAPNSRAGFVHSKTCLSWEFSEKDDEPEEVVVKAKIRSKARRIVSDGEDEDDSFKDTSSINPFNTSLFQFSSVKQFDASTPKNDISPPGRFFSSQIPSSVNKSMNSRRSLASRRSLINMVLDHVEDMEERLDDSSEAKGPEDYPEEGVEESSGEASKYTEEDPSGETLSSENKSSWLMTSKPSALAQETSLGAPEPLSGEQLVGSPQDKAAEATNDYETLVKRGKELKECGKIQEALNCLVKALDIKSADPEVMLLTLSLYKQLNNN
UniProt Q86YB8: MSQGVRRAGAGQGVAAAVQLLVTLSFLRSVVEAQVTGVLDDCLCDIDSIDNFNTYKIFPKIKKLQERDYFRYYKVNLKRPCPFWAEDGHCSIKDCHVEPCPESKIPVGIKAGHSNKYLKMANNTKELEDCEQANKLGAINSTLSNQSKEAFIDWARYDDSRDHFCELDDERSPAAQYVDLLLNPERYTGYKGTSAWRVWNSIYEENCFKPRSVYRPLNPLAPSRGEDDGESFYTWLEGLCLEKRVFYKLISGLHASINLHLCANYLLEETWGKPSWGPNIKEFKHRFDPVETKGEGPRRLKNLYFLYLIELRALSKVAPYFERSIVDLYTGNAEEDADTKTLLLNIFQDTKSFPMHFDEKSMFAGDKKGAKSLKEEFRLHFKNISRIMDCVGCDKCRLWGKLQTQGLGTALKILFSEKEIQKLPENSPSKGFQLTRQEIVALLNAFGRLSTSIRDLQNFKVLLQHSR
UniProt Q96L91, whole entry, looked up: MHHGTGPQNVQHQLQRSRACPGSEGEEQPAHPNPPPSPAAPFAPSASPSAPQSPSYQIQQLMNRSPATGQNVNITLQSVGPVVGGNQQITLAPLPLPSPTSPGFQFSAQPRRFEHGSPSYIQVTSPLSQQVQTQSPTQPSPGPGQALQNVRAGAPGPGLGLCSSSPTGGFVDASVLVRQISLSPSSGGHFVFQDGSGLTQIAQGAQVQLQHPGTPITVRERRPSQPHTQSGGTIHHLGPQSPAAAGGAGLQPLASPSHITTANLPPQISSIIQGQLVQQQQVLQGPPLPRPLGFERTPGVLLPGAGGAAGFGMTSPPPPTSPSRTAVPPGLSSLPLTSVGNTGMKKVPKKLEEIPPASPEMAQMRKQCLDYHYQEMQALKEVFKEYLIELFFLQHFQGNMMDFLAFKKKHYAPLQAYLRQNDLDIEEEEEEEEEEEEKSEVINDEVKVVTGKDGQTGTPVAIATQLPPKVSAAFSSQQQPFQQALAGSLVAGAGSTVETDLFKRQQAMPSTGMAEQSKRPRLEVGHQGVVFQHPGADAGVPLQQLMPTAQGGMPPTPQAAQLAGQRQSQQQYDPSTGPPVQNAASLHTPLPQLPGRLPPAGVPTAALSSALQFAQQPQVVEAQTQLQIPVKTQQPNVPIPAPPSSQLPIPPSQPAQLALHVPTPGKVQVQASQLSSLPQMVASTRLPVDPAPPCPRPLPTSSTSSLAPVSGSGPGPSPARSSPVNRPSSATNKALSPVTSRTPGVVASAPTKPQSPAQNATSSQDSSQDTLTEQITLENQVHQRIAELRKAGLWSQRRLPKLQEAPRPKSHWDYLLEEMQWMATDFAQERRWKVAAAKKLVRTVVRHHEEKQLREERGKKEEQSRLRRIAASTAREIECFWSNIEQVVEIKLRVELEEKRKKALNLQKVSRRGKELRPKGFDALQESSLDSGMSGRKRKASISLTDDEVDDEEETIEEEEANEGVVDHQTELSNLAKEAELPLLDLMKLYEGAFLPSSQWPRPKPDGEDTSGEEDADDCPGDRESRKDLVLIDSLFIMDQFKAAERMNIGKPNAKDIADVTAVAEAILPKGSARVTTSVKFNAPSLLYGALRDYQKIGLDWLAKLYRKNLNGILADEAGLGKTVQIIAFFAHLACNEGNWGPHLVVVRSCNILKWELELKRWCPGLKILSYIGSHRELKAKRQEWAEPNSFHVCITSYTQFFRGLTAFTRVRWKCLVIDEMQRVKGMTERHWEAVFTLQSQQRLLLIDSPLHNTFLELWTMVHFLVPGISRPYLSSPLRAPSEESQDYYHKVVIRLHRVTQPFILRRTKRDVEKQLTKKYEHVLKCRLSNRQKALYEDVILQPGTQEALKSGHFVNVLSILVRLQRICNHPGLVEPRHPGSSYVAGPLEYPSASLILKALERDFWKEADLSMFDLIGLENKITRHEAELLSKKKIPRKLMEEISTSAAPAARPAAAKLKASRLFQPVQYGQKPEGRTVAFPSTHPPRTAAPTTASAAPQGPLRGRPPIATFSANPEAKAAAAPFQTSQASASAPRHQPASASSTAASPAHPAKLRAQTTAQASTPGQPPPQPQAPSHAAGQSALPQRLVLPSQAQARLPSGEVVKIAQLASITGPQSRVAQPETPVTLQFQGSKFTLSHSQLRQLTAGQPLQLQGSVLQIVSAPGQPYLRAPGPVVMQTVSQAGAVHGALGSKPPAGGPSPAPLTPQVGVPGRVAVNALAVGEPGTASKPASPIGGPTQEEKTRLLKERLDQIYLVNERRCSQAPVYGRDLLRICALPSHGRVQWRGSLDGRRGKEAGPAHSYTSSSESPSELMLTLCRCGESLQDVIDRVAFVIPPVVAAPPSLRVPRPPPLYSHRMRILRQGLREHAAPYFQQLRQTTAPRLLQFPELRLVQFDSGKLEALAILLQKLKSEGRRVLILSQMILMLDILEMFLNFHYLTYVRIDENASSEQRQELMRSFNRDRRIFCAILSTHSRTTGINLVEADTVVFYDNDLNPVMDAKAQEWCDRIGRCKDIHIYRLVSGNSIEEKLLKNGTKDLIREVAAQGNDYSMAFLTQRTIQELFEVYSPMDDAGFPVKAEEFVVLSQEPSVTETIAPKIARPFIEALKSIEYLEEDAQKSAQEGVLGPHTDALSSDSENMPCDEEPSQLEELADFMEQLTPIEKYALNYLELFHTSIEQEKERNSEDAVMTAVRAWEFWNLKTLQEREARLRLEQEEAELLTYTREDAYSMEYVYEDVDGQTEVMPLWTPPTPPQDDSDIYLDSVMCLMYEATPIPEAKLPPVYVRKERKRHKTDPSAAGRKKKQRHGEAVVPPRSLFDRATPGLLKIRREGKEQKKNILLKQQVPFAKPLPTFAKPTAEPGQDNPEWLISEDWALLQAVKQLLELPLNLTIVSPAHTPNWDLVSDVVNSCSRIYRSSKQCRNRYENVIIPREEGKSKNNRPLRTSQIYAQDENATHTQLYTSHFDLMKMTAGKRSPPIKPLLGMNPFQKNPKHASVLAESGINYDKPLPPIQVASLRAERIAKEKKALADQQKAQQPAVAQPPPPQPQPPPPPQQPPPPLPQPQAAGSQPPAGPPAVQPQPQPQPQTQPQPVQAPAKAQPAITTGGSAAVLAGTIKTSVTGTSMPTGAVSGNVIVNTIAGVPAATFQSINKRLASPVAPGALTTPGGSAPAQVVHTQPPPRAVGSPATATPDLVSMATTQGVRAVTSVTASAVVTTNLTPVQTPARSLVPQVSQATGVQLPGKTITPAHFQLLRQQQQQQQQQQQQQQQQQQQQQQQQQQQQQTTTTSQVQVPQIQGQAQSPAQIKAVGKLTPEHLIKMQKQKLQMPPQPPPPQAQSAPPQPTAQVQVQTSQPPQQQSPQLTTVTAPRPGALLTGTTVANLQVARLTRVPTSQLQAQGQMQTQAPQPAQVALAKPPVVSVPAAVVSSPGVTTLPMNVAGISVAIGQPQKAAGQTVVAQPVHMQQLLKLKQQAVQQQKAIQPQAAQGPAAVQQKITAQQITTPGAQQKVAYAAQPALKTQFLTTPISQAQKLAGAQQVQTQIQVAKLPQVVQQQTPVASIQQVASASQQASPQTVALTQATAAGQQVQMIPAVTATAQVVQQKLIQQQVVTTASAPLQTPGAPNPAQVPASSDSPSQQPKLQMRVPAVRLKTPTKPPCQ

[2] = compound: ClCC(=O)N[C@H]1CCCc2ccccc12; test: as above; conditions: treatment time: 4 h, cell line lysate: HEK293T
Procedure: as §1

Row | Target | log2 mean competition ratio ([1]; 50 µM) | log2 mean competition ratio ([1]; 200 µM) | log2 mean competition ratio ([2]; 50 µM) | log2 mean competition ratio ([2]; 200 µM)
1 | FAM120B C416 (UniProt Q96EK7) | -0.252 | 0.0595 | -0.0103 | 0.159
2 | FAM126A C300 (UniProt Q9BYI3) | -0.0928 | -0.186 | -0.1 | -0.0418
3 | ERCC6L C1222 (UniProt Q2NKX8) | 0.108 | 0.0236 | 0.0277 | -0.0552
4 | ERO1B C165 (UniProt Q86YB8) | 0.163 |  | -0.422 | 0.54
5 | EP400 C2007 (UniProt Q96L91) | -0.242 | 0.169 | -0.0444 | 0.0759
6 | ERCC6 C1353 | -0.15 | 0.0396 | -0.0898 | 0.143
7 | EPHX4 C287 | 0.037 | -0.00927 | 0.817 | 0.0202

Source: the supplement of paper PMC11732987, “Enantioselective OTUD7B fragment discovery through chemoproteomics screening and high-throughput optimisation” (Communications Chemistry, 2025)
